Measured values published in patent US20220177485A1, “CAMPTOTHECIN DERIVATIVE, PREPARATION METHOD THEREFOR AND APPLICATION THEREOF” (MARINE BIOMEDICAL RESEARCH INSTITUTE OF QINGDAO CO., LTD., priority 2018, published 2022).
Some of these results come from one statement about several compounds together.

System: NCI-H1975 cells (non-small cell lung adenocarcinoma cancer cell)
Assay: growth inhibition of tumor cells in vitro, NCI-H1975
Format: cell-based
Conditions: Table 2: NCI-H1975, MDA-MB-231 and HCT-116 cell lines
From the text: We tested compounds target a variety of tumor cell for the growth inhibition to show its antitumor activity by using the method of the field technicians known. Chooses the tumor cell lines include: A549 cell non-small cell lung cancer cell line (people), K562 cells (human chronic myeloid leukemia cells), NCI-H1975 cells (non-small cell lung adenocarcinoma cancer cell), MDA-MB-231 cells (human breast cancer cells) and HCT-116 cells (human colon cancer cells).

Row | Structure (SMILES) | activities of proliferation compared to topotecan
1 | CC[C@@]1(O)C(=O)OCc2c1cc1n(c2=O)Cc2c-1nc1cc3c(cc1c2-c1ccncc1)OCO3 [Compound 21, 20(S)-7-(pyridin-4-yl)-10,11-methylenedioxy-camptothecin] | better activities of proliferation than the drug topotecan
2 | CC[C@@]1(O)C(=O)OCc2c1cc1n(c2=O)Cc2c-1nc1cc3c(cc1c2-c1cccnc1)OCO3 [Compound 22, 20(S)-7-(pyridin-3-yl)-10,11-methylenedioxy-camptothecin] | better activities of proliferation than the drug topotecan
3 | CC[C@@]1(O)C(=O)OCc2c1cc1n(c2=O)Cc2c-1nc1cc3c(cc1c2-c1cccs1)OCO3 [Compound 26, 20(S)-7-(thiophene-2-yl)-10,11-methylenedioxy-camptothecin] | better activities of proliferation than the drug topotecan
4 | CC[C@@]1(O)C(=O)OCc2c1cc1n(c2=O)Cc2c-1nc1cc3c(cc1c2-c1ccco1)OCO3 [Compound 27, 20(S)-7-(furan-2-yl)-10,11-methylenedioxy-camptothecin] | better activities of proliferation than the drug topotecan
5 | CC[C@@]1(O)C(=O)OCc2c1cc1n(c2=O)Cc2c-1nc1cc3c(cc1c2-c1cnn(C2CCCCO2)c1)OCO3 (stereo partly shown) [Compound 28] | better activities of proliferation than the drug topotecan
6 | CC[C@@]1(O)C(=O)OCc2c1cc1n(c2=O)Cc2c-1nc1cc3c(cc1c2-c1ccc2[nH]ccc2c1)OCO3 [Compound 29] | better activities of proliferation than the drug topotecan
7 | CC[C@@]1(O)C(=O)OCc2c1cc1n(c2=O)Cc2c-1nc1cc3c(cc1c2-c1ccnn1C)OCO3 [Compound 30] | better activities of proliferation than the drug topotecan
